Experimental findings from paper PMC12455829 are described below.

Chains of the proteins cited; added tags and fusions are not shown. Residues count along the entry.
UniProt P51532: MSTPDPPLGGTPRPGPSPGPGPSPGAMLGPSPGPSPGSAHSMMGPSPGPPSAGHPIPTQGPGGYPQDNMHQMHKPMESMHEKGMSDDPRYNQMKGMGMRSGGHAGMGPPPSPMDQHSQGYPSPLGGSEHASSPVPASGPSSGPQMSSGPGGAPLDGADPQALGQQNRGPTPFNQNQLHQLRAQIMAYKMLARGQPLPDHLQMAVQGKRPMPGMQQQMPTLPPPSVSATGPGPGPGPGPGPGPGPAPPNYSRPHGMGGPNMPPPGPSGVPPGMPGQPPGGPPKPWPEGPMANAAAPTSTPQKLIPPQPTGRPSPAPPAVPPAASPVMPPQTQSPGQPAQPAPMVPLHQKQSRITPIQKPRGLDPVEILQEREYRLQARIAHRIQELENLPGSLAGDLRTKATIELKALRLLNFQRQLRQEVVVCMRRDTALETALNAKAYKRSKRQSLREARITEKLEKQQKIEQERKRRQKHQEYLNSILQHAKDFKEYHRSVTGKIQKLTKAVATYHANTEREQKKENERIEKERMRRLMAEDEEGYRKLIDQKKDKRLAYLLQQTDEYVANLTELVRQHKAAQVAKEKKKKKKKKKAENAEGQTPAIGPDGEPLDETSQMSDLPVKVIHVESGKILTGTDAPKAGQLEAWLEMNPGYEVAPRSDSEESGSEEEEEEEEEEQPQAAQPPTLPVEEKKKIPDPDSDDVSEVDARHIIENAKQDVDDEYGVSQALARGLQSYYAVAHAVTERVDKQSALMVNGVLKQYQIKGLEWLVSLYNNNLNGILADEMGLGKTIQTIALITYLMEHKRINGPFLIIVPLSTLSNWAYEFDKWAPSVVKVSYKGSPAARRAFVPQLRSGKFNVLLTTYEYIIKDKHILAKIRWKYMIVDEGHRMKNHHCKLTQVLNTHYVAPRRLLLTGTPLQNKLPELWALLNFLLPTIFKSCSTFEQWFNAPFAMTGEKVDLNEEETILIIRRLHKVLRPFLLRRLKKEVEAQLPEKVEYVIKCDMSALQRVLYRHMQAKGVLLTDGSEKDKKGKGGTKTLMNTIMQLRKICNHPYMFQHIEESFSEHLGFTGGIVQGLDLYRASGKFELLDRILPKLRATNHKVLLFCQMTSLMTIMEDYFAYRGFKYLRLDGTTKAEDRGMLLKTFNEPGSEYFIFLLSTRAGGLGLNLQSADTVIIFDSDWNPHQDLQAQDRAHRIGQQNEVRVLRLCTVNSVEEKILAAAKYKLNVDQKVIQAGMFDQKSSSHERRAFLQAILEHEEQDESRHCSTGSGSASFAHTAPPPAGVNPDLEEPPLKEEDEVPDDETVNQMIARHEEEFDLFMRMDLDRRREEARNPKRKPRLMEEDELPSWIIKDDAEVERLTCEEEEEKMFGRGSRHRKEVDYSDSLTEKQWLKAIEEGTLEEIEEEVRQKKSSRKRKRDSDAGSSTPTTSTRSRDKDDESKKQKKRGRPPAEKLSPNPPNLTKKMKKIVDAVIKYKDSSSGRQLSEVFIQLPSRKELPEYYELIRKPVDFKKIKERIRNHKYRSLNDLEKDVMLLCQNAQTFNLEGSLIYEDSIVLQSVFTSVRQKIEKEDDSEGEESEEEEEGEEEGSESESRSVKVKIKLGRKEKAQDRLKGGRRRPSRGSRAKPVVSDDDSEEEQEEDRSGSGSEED
UniProt P16401: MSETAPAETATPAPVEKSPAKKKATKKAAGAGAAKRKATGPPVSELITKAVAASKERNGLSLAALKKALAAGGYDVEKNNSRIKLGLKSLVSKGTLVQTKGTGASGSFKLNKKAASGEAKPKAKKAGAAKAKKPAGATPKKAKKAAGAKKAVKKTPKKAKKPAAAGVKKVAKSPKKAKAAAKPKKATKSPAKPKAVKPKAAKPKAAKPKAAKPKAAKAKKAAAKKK
UniProt P14625, residues 22-803: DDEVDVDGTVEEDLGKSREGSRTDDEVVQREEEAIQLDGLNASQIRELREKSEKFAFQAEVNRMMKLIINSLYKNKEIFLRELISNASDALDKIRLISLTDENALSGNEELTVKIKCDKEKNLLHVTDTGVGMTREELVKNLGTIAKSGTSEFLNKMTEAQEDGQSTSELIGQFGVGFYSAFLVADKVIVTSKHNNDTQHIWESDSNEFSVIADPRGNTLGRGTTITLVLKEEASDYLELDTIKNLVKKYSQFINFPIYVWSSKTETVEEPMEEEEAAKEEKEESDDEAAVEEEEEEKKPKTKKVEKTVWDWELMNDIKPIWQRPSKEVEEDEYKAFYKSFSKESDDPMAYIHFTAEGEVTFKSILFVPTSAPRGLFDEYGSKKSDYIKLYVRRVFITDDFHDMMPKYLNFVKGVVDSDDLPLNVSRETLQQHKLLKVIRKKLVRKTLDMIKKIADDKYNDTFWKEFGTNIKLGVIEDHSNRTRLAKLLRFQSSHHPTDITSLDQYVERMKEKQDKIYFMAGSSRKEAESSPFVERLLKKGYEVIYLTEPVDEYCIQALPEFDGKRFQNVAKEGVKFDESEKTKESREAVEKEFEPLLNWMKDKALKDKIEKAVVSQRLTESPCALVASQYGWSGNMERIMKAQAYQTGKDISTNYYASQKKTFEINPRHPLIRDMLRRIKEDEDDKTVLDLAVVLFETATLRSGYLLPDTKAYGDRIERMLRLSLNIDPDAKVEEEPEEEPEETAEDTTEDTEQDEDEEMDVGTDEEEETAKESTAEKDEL
UniProt P01106: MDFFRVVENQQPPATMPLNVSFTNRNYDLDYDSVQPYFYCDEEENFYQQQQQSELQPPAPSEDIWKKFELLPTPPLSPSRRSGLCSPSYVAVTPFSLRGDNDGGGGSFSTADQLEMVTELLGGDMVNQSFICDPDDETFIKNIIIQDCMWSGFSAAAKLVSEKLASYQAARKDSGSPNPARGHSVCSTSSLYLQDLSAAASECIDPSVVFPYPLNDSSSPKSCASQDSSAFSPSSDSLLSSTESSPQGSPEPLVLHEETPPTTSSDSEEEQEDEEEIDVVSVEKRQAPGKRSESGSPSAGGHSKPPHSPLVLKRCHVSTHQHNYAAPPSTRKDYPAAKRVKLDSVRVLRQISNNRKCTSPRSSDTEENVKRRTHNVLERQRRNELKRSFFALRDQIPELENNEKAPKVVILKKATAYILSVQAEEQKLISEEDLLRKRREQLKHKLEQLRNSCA
UniProt P21359: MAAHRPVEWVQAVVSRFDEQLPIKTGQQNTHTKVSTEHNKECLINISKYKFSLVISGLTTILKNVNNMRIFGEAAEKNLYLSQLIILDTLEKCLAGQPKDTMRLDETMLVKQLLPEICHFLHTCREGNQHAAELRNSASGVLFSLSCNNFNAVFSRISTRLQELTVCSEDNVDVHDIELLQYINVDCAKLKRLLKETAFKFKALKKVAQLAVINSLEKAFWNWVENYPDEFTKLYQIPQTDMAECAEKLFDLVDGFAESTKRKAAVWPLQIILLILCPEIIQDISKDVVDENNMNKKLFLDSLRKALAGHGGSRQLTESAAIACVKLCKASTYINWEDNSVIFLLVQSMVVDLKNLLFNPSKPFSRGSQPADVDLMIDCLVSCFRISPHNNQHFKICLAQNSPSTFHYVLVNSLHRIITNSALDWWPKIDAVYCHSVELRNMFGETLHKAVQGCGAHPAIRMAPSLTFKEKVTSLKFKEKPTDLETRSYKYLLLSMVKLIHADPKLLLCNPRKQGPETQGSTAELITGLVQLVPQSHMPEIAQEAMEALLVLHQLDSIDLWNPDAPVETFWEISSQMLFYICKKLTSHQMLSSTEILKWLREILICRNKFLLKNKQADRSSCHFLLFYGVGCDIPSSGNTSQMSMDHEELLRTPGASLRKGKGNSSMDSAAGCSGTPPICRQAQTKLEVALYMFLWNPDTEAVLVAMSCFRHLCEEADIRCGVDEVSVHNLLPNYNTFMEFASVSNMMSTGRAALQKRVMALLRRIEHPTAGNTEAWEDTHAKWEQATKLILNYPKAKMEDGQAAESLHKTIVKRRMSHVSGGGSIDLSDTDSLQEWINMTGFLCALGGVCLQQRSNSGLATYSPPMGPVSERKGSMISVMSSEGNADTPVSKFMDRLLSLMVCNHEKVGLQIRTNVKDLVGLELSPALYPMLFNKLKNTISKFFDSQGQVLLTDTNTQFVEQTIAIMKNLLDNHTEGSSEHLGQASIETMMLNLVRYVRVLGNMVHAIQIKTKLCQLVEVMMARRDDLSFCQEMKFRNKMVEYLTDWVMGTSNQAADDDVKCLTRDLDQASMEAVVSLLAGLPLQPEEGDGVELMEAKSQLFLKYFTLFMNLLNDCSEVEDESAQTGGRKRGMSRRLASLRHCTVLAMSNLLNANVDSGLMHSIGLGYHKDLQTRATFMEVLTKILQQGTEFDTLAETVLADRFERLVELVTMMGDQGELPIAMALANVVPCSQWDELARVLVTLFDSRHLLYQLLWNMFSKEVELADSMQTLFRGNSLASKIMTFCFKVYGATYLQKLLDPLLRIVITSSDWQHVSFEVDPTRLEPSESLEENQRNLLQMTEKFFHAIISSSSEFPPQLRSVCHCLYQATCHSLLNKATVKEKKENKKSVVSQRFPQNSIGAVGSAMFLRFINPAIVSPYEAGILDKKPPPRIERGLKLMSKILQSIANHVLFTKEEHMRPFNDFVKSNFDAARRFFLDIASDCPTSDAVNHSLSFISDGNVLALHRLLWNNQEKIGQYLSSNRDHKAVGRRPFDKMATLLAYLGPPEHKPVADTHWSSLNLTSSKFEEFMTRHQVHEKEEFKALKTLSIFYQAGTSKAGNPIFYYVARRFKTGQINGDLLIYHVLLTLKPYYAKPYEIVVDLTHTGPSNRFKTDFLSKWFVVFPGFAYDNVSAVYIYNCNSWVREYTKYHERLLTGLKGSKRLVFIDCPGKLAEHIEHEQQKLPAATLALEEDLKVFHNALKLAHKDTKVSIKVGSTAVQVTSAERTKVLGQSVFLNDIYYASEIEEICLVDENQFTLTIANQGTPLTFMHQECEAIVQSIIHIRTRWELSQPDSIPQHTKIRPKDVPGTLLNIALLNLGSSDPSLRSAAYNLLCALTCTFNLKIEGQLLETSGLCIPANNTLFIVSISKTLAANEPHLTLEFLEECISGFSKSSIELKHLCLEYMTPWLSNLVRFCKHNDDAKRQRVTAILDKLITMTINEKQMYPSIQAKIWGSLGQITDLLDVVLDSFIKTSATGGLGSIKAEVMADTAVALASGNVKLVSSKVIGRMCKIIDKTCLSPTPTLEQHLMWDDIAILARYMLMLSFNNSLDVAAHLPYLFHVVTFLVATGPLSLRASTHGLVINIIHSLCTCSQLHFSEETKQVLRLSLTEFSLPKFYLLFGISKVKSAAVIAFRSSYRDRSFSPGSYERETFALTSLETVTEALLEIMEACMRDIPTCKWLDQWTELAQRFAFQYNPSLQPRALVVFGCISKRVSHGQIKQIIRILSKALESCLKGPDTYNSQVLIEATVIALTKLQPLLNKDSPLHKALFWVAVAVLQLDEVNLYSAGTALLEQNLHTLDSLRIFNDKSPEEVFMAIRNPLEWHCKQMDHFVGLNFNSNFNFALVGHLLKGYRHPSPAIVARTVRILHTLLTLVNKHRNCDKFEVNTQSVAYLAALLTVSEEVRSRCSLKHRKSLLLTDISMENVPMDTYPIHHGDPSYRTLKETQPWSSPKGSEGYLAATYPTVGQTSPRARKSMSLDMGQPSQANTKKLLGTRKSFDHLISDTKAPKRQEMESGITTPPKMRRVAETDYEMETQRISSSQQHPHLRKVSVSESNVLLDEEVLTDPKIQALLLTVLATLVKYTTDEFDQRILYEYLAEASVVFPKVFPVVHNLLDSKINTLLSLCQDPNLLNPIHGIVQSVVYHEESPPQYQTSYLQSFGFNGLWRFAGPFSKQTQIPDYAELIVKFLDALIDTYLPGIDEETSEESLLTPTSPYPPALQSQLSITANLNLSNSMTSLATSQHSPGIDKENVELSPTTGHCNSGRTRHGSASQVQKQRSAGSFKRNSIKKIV
UniProt Q8N972: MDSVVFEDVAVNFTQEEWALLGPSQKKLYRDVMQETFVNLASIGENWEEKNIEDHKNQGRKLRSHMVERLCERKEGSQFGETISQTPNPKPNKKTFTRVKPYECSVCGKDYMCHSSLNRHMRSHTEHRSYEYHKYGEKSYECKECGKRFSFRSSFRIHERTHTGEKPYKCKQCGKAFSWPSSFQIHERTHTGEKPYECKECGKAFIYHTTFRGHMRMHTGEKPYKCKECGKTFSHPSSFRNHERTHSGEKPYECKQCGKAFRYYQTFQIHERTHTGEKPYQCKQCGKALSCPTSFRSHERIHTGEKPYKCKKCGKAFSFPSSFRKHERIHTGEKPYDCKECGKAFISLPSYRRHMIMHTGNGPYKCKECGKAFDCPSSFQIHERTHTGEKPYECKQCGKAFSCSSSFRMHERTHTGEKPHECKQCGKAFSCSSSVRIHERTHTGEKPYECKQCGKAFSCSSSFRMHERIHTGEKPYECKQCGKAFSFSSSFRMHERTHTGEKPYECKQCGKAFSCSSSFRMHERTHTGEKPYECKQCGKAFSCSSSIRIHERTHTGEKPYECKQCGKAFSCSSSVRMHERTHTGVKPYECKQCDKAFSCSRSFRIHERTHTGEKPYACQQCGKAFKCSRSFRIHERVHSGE

No constants are given. Whether binding was seen depends on the method and setting. In cells and extracts the contact can be indirect. These calls come from enrichment with a bait or labelling near it, and not all partners need be listed.

The target in the test is BRG1 (human (endogenous in MLS 402-91 and EWS TC-71)) (UniProt P51532). The test can be described thus: affinity purification with mass spectrometry; BRG1 IP: biotinylated BRG1 antibody on streptavidin magnetic beads, 50 µg nuclear extract of MLS 402-91 or of EWS TC-71 cells, 150 mM KCl, 10 mM Tris pH 7.5, overnight at 4 °C; TMT quantitative mass spectrometry; hits > 1.5-fold over the IgG control.
As for BAF45C (from UniProt Q92784 1-378), the binding entry is reported as “binds”.
Under BAF60B (from UniProt Q92925 1-531) stands “binds”; under BCL7A (from UniProt Q4VC05 1-210), “binds”.
As to BCL7B (from UniProt Q9BQE9 1-202), the binding result is recorded as “binds”.
Next, BRD9 (from UniProt Q9H8M2 1-597): “binds”; CHD7 (from UniProt Q9P2D1 1-2997): “binds”.
As to EED (from UniProt O75530 1-441), the binding entry is “binds”.
Under ELF2 (from UniProt Q15723 1-593) stands “binds”; under EWSR1 (from UniProt Q01844 1-656), “binds”.
Under FUS (from UniProt P35637 1-526) stands “binds”.
Next, GATA2 (from UniProt P23769 1-480): “binds”; GLTSCR1 (from UniProt Q9NZM4 1-1560): “binds”.
For the substance H1-0 (from UniProt P07305 1-194), the binding entry was “binds”.
Under H1-2 (from UniProt P16403 1-213) stands “binds”; under H1-3 (from UniProt P16402 1-221), “binds”; under H1-5 (from UniProt P16401 1-226), “binds”.
With H1-10 (from UniProt Q92522 1-213), the binding result was “binds”.
On to HMGN3 (from UniProt Q15651 1-99), for which the binding entry was “binds”.
Take HOXD11 (from UniProt P31277 1-338): the binding result is recorded as “binds”.
Under HSP90B1 (from UniProt P14625 22-803) stands “binds”; under JUN (from UniProt P05412 1-331), “binds”; under MACROH2A2 (from UniProt Q9P0M6 1-372), “binds”.
Next, MYC (from UniProt P01106 1-454): “binds”; NF1 (from UniProt P21359 1-2839): “binds”.
Next, NSD3 (from UniProt Q9BZ95 1-1437): “binds”; PML (from UniProt P29590 1-882): “binds”.
RUNX1 (from UniProt Q01196 1-453): the binding entry is “binds”.
Under SOX6 (from UniProt P35712 1-828) stands “binds”; under SP1 (from UniProt P08047 1-785), “binds”.
Next, SS18L1 (from UniProt O75177 1-396): “binds”; STAT3 (from UniProt P40763 1-770): “binds”.
Next, SUZ12 (from UniProt Q15022 1-739): “binds”; YBX1 (from UniProt P67809 1-324): “binds”.
With YY1 (from UniProt P25490 1-414), the binding entry was “binds”.
Under ZNF709 (from UniProt Q8N972 1-641) stands “binds”.
